The numbers were not newly measured in US20120308616A1, “SUBMICRO EMULSION OF PACLITAXEL USING STEROID COMPLEX AS INTERMEDIATE CARRIER” (INSTITUTE OF MATARIA MEDICA, CHINESE ACADEMY OF MEDICAL …, priority 2009, published 2012), which cites them from elsewhere.

Converted amounts (≈) assume the structure as drawn.

Turning to `CC(=O)O[C@H]1C(=O)[C@@]2(C)[C@H]([C@H](OC(=O)c3ccccc3)[C@]3(O)C[C@H](OC(=O)[C@H](O)[C@@H](NC(=O)c4ccccc4)c4ccccc4)C(C)=C1C3(C)C)[C@]1(OC(C)=O)CO[C@@H]1C[C@@H]2O` [Paclitaxel], the solubility in water is 6 ng/mL (≈ 7.03 nM).
